From the supplement of paper PMC12823440, “Inhibitors supercharge kinase turnover through native proteolytic circuits” (Nature, 2025)
Where a name gives a salt, the structure may show the parent alone. Some of the results follow. Hit calls seldom repeat between salt and free forms of one compound.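 In K562 cells expressing nanoluciferase-fused kinases, luminescence was recorded at 4 h intervals between 2 and 18 h, normalized as percent of control with DMSO at 100% and a positive control at 0%. A significant (2 sigma) signal drop marks a time point as decreased. The authors' rule for a hit is not shown and takes in more than the number of time points.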

By UniProt entry, the sequences of proteins in these tests, tags left out. Where a name states a change or a piece, a line headed by the entry shows the natural chain unless it says otherwise.
UniProt P00519, whole entry: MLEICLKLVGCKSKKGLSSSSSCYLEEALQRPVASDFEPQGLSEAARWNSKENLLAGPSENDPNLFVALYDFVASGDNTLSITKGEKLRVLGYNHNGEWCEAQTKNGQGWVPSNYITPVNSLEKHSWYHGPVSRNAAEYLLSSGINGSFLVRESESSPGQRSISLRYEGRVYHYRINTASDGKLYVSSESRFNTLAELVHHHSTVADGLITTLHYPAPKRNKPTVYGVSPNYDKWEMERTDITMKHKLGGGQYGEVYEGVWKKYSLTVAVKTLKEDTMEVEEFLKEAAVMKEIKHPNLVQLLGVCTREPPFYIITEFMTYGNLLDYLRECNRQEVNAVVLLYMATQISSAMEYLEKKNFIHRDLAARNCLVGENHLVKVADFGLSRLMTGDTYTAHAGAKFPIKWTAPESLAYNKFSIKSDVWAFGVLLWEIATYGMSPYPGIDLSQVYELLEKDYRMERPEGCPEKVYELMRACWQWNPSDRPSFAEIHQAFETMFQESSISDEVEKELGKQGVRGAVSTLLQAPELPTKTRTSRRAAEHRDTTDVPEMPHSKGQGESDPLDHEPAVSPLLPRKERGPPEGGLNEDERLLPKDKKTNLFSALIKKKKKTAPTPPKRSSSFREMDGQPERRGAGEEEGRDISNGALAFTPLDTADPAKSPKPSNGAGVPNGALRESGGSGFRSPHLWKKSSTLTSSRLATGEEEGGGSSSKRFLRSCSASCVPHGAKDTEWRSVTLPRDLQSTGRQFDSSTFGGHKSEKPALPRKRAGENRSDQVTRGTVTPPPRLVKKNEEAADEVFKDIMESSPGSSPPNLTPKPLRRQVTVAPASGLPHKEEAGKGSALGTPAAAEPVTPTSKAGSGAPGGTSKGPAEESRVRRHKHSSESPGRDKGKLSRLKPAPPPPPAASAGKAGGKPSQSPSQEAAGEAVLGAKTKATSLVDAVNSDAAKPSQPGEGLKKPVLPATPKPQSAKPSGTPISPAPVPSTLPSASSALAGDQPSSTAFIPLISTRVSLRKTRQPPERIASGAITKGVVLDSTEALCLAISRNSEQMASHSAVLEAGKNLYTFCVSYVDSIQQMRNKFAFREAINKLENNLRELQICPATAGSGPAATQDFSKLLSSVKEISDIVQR
UniProt P31749: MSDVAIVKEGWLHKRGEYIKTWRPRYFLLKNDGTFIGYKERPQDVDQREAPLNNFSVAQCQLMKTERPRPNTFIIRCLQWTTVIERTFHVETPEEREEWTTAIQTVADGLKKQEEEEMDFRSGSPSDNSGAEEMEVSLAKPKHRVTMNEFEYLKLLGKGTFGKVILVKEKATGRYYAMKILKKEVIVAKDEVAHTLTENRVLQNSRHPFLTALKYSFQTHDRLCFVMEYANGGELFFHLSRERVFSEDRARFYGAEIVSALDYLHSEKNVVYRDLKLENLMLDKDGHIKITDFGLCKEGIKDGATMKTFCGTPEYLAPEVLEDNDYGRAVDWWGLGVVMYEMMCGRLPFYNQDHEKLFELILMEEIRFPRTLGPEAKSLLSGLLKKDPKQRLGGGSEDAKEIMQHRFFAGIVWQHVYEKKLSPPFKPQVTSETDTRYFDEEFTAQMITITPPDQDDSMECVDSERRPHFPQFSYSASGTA
UniProt Q96GD4, whole entry: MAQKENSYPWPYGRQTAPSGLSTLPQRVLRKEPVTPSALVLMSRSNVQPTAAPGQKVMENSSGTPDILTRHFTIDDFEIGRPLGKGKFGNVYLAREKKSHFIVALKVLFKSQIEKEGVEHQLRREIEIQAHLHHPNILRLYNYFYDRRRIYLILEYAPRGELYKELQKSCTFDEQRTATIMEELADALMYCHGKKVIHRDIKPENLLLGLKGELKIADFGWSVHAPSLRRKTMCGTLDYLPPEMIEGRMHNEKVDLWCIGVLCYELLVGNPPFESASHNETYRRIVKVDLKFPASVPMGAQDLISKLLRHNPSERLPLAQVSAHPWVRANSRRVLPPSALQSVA
UniProt Q9UQB9: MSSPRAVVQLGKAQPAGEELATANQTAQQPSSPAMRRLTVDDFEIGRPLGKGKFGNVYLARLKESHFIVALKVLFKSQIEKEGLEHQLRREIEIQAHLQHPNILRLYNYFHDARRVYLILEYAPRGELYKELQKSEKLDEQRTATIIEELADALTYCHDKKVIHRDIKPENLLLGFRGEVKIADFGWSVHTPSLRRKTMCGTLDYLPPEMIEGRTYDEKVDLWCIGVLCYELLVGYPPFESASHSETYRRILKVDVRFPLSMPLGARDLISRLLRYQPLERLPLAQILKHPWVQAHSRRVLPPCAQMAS
UniProt P51451: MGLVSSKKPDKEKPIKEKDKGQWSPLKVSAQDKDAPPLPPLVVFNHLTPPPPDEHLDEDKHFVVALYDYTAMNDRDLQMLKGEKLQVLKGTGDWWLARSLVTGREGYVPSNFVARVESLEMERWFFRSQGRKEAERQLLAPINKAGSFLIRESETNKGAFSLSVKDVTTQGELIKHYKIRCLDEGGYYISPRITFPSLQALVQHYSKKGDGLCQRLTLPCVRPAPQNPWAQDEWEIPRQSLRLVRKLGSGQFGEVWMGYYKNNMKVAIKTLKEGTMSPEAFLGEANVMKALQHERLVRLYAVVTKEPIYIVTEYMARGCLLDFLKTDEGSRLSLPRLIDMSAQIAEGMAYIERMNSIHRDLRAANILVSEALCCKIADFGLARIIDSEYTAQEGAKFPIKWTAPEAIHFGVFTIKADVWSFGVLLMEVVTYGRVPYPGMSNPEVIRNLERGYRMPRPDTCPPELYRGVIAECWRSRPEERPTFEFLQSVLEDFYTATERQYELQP
UniProt P51813: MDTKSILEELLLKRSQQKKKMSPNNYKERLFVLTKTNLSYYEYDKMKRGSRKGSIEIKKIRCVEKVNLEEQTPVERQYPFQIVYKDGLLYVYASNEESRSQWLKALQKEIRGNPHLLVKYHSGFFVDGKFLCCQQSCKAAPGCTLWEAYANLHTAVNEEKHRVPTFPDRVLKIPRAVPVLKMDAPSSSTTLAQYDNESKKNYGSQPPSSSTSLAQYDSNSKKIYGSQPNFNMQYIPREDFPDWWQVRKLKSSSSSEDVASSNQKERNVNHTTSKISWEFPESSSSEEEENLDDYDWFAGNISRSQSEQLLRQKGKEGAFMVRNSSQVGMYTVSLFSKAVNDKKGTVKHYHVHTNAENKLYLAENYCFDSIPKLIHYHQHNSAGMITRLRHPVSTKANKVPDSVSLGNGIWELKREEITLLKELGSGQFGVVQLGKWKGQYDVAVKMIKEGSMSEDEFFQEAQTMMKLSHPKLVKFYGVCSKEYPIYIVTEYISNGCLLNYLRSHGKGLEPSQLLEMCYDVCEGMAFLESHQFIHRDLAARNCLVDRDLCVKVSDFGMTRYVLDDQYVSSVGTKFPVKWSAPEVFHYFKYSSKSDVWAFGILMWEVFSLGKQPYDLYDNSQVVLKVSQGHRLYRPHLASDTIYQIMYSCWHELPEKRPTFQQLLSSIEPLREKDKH
UniProt P15056, whole entry, looked up: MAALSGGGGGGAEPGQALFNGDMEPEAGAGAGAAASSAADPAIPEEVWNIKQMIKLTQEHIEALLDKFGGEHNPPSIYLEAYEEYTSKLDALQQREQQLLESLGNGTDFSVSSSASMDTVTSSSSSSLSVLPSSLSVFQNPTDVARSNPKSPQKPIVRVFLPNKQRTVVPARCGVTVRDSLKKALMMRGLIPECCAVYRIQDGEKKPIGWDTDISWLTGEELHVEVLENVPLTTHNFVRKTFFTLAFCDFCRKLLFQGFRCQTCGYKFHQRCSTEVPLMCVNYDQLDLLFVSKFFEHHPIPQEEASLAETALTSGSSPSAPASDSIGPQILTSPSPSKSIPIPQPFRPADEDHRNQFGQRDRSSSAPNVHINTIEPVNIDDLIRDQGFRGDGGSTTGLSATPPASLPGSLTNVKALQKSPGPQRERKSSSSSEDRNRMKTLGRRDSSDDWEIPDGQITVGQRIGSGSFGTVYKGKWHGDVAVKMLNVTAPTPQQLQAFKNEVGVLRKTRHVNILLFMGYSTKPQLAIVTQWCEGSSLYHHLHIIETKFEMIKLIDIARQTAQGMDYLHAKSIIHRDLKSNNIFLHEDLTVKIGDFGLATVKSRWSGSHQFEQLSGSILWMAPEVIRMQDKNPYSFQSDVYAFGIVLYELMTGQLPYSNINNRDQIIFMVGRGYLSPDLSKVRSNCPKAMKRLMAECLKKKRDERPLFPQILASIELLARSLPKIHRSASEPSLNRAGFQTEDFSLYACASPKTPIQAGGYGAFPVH
UniProt Q06187: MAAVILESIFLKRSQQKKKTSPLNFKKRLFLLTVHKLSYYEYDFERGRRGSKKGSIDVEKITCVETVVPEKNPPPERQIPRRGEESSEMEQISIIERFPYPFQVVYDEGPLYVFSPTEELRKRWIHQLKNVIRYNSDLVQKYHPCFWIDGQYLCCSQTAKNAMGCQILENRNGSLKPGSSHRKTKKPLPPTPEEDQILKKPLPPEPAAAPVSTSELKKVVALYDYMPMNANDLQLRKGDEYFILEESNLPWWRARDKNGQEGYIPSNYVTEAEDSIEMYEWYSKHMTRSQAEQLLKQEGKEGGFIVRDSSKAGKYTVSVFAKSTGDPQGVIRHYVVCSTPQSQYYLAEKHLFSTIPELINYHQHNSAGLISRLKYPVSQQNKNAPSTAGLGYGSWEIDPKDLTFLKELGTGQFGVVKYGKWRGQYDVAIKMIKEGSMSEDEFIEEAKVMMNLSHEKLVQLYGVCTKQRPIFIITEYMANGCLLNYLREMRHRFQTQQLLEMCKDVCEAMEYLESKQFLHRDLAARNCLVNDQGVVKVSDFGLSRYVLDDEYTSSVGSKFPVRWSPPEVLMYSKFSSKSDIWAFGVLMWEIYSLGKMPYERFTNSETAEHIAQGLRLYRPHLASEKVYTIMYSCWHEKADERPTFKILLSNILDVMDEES
UniProt Q9UQM7, whole entry: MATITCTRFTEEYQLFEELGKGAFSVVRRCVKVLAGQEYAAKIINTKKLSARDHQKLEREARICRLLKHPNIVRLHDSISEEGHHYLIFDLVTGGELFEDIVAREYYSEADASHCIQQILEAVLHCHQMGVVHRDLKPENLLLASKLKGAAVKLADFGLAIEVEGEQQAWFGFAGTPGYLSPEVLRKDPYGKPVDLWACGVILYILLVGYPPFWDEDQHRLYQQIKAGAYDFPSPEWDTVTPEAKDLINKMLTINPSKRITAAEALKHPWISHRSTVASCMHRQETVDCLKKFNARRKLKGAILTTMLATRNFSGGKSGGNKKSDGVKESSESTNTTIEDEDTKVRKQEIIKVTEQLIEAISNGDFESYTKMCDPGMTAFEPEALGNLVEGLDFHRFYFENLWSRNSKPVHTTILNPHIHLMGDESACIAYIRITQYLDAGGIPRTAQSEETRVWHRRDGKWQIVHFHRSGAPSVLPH
UniProt Q00526: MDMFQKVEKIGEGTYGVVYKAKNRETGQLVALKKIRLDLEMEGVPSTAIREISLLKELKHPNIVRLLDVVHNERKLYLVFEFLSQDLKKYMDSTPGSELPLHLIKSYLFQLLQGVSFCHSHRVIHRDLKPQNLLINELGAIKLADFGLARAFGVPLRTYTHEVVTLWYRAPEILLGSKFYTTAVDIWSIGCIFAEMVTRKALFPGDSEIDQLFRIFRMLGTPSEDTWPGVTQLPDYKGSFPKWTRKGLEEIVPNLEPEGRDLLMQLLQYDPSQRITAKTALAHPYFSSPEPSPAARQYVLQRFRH
UniProt P11802: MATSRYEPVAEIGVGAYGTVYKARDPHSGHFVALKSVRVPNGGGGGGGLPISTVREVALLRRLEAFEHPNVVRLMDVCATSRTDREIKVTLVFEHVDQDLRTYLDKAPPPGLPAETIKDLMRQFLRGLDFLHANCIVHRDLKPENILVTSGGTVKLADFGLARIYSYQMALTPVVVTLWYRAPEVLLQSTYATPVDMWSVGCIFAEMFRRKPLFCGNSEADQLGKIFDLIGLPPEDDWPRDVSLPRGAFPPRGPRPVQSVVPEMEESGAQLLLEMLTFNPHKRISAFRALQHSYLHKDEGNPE
UniProt Q00535, whole entry, looked up: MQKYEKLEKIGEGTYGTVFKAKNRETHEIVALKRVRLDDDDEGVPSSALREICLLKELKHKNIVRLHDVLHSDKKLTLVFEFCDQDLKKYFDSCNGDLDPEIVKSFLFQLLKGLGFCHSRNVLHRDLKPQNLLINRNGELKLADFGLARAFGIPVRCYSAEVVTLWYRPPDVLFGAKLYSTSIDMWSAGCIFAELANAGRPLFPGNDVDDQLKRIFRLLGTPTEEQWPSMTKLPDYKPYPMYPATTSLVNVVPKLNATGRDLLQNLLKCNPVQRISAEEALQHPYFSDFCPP
UniProt Q00534, whole entry: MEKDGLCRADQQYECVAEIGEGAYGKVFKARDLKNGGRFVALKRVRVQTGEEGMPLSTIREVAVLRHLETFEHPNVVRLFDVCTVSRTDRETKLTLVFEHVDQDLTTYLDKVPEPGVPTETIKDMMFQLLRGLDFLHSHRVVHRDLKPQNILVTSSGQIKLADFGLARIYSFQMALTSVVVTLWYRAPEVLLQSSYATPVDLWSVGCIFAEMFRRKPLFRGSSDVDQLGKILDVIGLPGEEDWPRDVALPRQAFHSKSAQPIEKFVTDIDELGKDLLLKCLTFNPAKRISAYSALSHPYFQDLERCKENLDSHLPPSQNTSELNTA

Key:
Assay in all cases: kinase-Nluc reporter destabilization hit call (1 = scored as downregulated) (binary); higher = compound decreases kinase abundance
Details in all cases: K562, 2-18 h
ABL1 = ABL1 (UniProt P00519)
AKT1 = AKT1 (UniProt P31749)
ALK = ALK (UniProt Q9UM73)
ARAF = ARAF (UniProt P10398)
AURKA = AURKA (UniProt O14965)
AURKB = AURKB (UniProt Q96GD4)
AURKC = AURKC (UniProt Q9UQB9)
BLK = BLK (UniProt P51451)
BMX = BMX (UniProt P51813)
BRAF = BRAF (UniProt P15056)
BRAF_V600E = tested on: BRAF_V600E
BTK = BTK (UniProt Q06187)
CAMK2A = CAMK2A (UniProt Q9UQM7)
CAMK2G = CAMK2G (UniProt Q13555)
CDK10 = CDK10 (UniProt Q15131)
CDK2 = CDK2 (UniProt P24941)
CDK3 = CDK3 (UniProt Q00526)
CDK4 = CDK4 (UniProt P11802)
CDK5 = CDK5 (UniProt Q00535)
CDK6 = CDK6 (UniProt Q00534)

Row | SMILES | kinase-Nluc reporter destabilization hit call (ABL1; 10 µM) | kinase-Nluc reporter destabilization hit call (AKT1; 10 µM) | kinase-Nluc reporter destabilization hit call (ALK; 10 µM) | kinase-Nluc reporter destabilization hit call (ARAF; 10 µM) | kinase-Nluc reporter destabilization hit call (AURKA; 10 µM) | kinase-Nluc reporter destabilization hit call (AURKB; 10 µM) | kinase-Nluc reporter destabilization hit call (AURKC; 10 µM) | kinase-Nluc reporter destabilization hit call (BLK; 10 µM) | kinase-Nluc reporter destabilization hit call (BMX; 10 µM) | kinase-Nluc reporter destabilization hit call (BRAF; 10 µM) | kinase-Nluc reporter destabilization hit call (BRAF_V600E; 10 µM) | kinase-Nluc reporter destabilization hit call (BTK; 10 µM) | kinase-Nluc reporter destabilization hit call (CAMK2A; 10 µM) | kinase-Nluc reporter destabilization hit call (CAMK2G; 10 µM) | kinase-Nluc reporter destabilization hit call (CDK10; 10 µM) | kinase-Nluc reporter destabilization hit call (CDK2; 10 µM) | kinase-Nluc reporter destabilization hit call (CDK3; 10 µM) | kinase-Nluc reporter destabilization hit call (CDK4; 10 µM) | kinase-Nluc reporter destabilization hit call (CDK5; 10 µM) | kinase-Nluc reporter destabilization hit call (CDK6; 10 µM) | kinase-Nluc reporter destabilization hit call (ABL1; 2.5 µM) | kinase-Nluc reporter destabilization hit call (AKT1; 2.5 µM) | kinase-Nluc reporter destabilization hit call (ALK; 2.5 µM) | kinase-Nluc reporter destabilization hit call (ARAF; 2.5 µM) | kinase-Nluc reporter destabilization hit call (AURKA; 2.5 µM) | kinase-Nluc reporter destabilization hit call (AURKB; 2.5 µM) | kinase-Nluc reporter destabilization hit call (AURKC; 2.5 µM) | kinase-Nluc reporter destabilization hit call (BLK; 2.5 µM) | kinase-Nluc reporter destabilization hit call (BMX; 2.5 µM) | kinase-Nluc reporter destabilization hit call (BRAF; 2.5 µM) | kinase-Nluc reporter destabilization hit call (BRAF_V600E; 2.5 µM) | kinase-Nluc reporter destabilization hit call (BTK; 2.5 µM) | kinase-Nluc reporter destabilization hit call (CAMK2A; 2.5 µM) | kinase-Nluc reporter destabilization hit call (CAMK2G; 2.5 µM) | kinase-Nluc reporter destabilization hit call (CDK10; 2.5 µM) | kinase-Nluc reporter destabilization hit call (CDK2; 2.5 µM) | kinase-Nluc reporter destabilization hit call (CDK3; 2.5 µM) | kinase-Nluc reporter destabilization hit call (CDK4; 2.5 µM) | kinase-Nluc reporter destabilization hit call (CDK5; 2.5 µM) | kinase-Nluc reporter destabilization hit call (CDK6; 2.5 µM)
1 | O=C(c1ccc(F)c(F)c1Nc1ccc(I)cc1F)N1CC(O)([C@@H]2CCCCN2)C1 [Cobimetinib] | inactive: 0 | inactive: 0 | inactive: 0 | inactive: 0 | inactive: 0 | inactive: 0 | inactive: 0 | inactive: 0 | inactive: 0 | inactive: 0 | inactive: 0 | inactive: 0 | inactive: 0 | inactive: 0 | inactive: 0 | inactive: 0 | inactive: 0 | inactive: 0 | inactive: 0 | inactive: 0 |  |  |  |  |  |  |  |  |  |  |  |  |  |  |  |  |  |  |  | 
2 | COc1cc2c(Oc3ccc4[nH]c(C)cc4c3F)ncnc2cc1OCCCN1CCCC1 [Cediranib] |  |  |  |  |  |  |  |  |  |  |  |  |  |  |  |  |  |  |  |  | inactive: 0 | inactive: 0 | inactive: 0 | inactive: 0 | inactive: 0 | inactive: 0 | inactive: 0 | inactive: 0 | inactive: 0 | inactive: 0 | inactive: 0 | inactive: 0 | inactive: 0 | inactive: 0 | inactive: 0 | inactive: 0 | inactive: 0 | inactive: 0 | inactive: 0 | inactive: 0
3 | CN1CCCN(C(=O)c2cccc(-c3ccc(/C=C4/C(=O)Nc5ccc(Cl)cc54)o3)c2)CC1 |  |  |  |  |  |  |  |  |  |  |  |  |  |  |  |  |  |  |  |  | inactive: 0 | inactive: 0 | inactive: 0 | inactive: 0 | inactive: 0 | inactive: 0 | inactive: 0 | inactive: 0 | inactive: 0 | inactive: 0 | inactive: 0 | inactive: 0 | inactive: 0 | inactive: 0 | inactive: 0 | inactive: 0 | inactive: 0 | inactive: 0 | inactive: 0 | inactive: 0
4 | Cc1cccc(/C=N/Nc2cc(N3CCOCC3)nc(OCCc3ccccn3)n2)c1 [Apilimod (mesylate)] | inactive: 0 | inactive: 0 | inactive: 0 | inactive: 0 | inactive: 0 | inactive: 0 | inactive: 0 | inactive: 0 | inactive: 0 | inactive: 0 | inactive: 0 | inactive: 0 | inactive: 0 | inactive: 0 | inactive: 0 | inactive: 0 | inactive: 0 | inactive: 0 | inactive: 0 | inactive: 0 |  |  |  |  |  |  |  |  |  |  |  |  |  |  |  |  |  |  |  | 
5 | Cc1nc2ccc(-n3c(-c4nonc4N)nc4cnccc43)cc2[nH]1 | inactive: 0 | inactive: 0 | inactive: 0 | inactive: 0 | inactive: 0 | inactive: 0 | inactive: 0 | inactive: 0 | inactive: 0 | inactive: 0 | inactive: 0 | inactive: 0 | inactive: 0 | inactive: 0 | inactive: 0 | inactive: 0 | inactive: 0 | inactive: 0 | inactive: 0 | inactive: 0 |  |  |  |  |  |  |  |  |  |  |  |  |  |  |  |  |  |  |  | 
6 | CCN(CC)CC(=O)Nc1c(C)cccc1C [Lidocaine (hydrochloride)] | inactive: 0 | inactive: 0 | inactive: 0 | inactive: 0 | inactive: 0 | inactive: 0 | inactive: 0 | inactive: 0 | inactive: 0 | inactive: 0 | inactive: 0 | inactive: 0 | inactive: 0 | inactive: 0 | inactive: 0 | inactive: 0 | inactive: 0 | inactive: 0 | inactive: 0 | inactive: 0 |  |  |  |  |  |  |  |  |  |  |  |  |  |  |  |  |  |  |  | 
7 | O=C(Nc1ccncc1)Nc1ccc(-c2nc(N3CCOCC3)nc(N3C4CCC3COC4)n2)cc1 [PKI-179 (hydrochloride)] |  |  |  |  |  |  |  |  |  |  |  |  |  |  |  |  |  |  |  |  | active: 1 | inactive: 0 | inactive: 0 | inactive: 0 | inactive: 0 | inactive: 0 | inactive: 0 | inactive: 0 | inactive: 0 | inactive: 0 | inactive: 0 | inactive: 0 | inactive: 0 | inactive: 0 | inactive: 0 | inactive: 0 | inactive: 0 | inactive: 0 | inactive: 0 | inactive: 0
8 | CC(C)Nc1cc(-c2c[nH]c(C(=O)N[C@H](CO)c3cccc(Cl)c3)c2)c(Cl)cn1 [Ulixertinib (hydrochloride)] | inactive: 0 | inactive: 0 | inactive: 0 | inactive: 0 | inactive: 0 | inactive: 0 | inactive: 0 | inactive: 0 | inactive: 0 | inactive: 0 | inactive: 0 | inactive: 0 | inactive: 0 | inactive: 0 | inactive: 0 | inactive: 0 | inactive: 0 | inactive: 0 | inactive: 0 | inactive: 0 |  |  |  |  |  |  |  |  |  |  |  |  |  |  |  |  |  |  |  | 
9 | C=CC(=O)Nc1cc(Nc2nccc(-c3cn(C)c4ccccc34)n2)c(OC)cc1N(C)CCN(C)C [Osimertinib] |  |  |  |  |  |  |  |  |  |  |  |  |  |  |  |  |  |  |  |  | inactive: 0 | inactive: 0 | inactive: 0 | inactive: 0 | inactive: 0 | inactive: 0 | inactive: 0 | inactive: 0 | inactive: 0 | inactive: 0 | inactive: 0 | inactive: 0 | inactive: 0 | inactive: 0 | inactive: 0 | inactive: 0 | inactive: 0 | inactive: 0 | inactive: 0 | inactive: 0
